No constants are given. Whether binding was seen depends on the method and setting. Binding seen in cells or lysates may run through a third protein. These calls come from enrichment with a bait or labelling near it, and not all partners need be listed.
Biological target: Shiftless (SHFL, C19ORF66), endogenous in iSLK.WT cells (human (endogenous in iSLK.WT)) (UniProt Q9NUL5)
Assay: affinity purification with mass spectrometry

## KSHV ORF57, viral protein in iSLK.WT cells (from UniProt Q2HR75 1-455)
  binding: binds

Reference: doi:10.1101/2022.02.18.480778
